Article PMC10163120
These are yes or no findings as the source states them, for the method shown. In cells and extracts the contact can be indirect. These calls come from enrichment with a bait or labelling near it, and not all partners need be listed.

Target: T1, P2X4 receptor (mouse (endogenous in BMDM)) (UniProt Q9JJX6)
T1 sequence: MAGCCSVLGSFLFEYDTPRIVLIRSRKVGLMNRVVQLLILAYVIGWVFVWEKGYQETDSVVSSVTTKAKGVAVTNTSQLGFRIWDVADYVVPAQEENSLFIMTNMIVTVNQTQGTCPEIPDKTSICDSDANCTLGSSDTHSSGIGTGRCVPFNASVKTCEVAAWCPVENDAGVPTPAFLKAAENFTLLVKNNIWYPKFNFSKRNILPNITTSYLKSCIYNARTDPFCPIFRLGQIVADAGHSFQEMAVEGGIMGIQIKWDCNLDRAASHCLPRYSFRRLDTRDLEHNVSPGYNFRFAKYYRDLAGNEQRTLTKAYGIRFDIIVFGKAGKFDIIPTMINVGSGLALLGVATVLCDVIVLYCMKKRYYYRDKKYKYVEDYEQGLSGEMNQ
Assay: affinity purification with mass spectrometry; anti-P2X4 antibody (Alomone Labs) crosslinked to magnetic beads, incubated o/n at 4 °C with CL48-solubilised membrane-enriched fractions of BMDM from WT and P2X4 KO mice; eluates analysed by LC MS/MS; two independent experiments

binding: binds
B1: Apolipoprotein E (protein, UniProt P08226 19-311)
chain: EGEPEVTDQLEWQSNQPWEQALNRFWDYLRWVQTLSDQVQEELQSSQVTQELTALMEDTMTEVKAYKKELEEQLGPVAEETRARLGKEVQAAQARLGADMEDLRNRLGQYRNEVHTMLGQSTEEIRARLSTHLRKMRKRLMRDAEDLQKRLAVYKAGAREGAERGVSAIRERLGPLVEQGRQRTANLGAGAAQPLRDRAQAFGDRIRGRLEEVGNQARDRLEEVREHMEEVRSKMEEQTQQIRLQAEIFQARLKGWFEPIVEDMHRQWANLMEKIQASVATNPIITPVAQENQ
